Reference: patent US20220074941A1, “HSP90 COMBINATION THERAPY” (Sloan-Kettering Institute for Cancer Research, priority 2011, published 2022)

Legend:
[1] = test system: Hsp90 complexes in K562 cell extract; experiment: Nano-LC-MS/MS of PU-beads pull-downs; format: binding; conditions: for Number of Assigned Spectra, K562 Prep 1 / Number of Assigned Spectra, K562 Prep 2: protein identified in PU-beads pull-down of K562 extract, QSTAR-Elite QTof MS; for Matched Peptides by Fraction JA07 / Matched Peptides by Fraction JA14 / MAXIMUM matched peptides / Matched Peptides by Fraction JA05 / Matched Peptides by Fraction JA12 / Matched Peptides by Fraction JA01 / Matched Peptides by Fraction JA08 / Matched Peptides by Fraction JA06 / Matched Peptides by Fraction JA04 / Matched Peptides by Fraction JA03 / Matched Peptides by Fraction JA13 / Matched Peptides by Fraction JA11 / Matched Peptides by Fraction JA10 / Matched Peptides by Fraction JA02 / Matched Peptides by Fraction JA09: PU-beads pull-down; for Matched Peptides by Fraction JA07: Run1, gel size cut <40; for Matched Peptides by Fraction JA14: Run2, gel size cut <40; for MAXIMUM matched peptides: maximum over fractions JA01-JA14; for Total fmol: protein isolated in PU-beads pull-downs, Waters Xevo QTof MS; for Matched Peptides by Fraction JA05: Run1, gel size cut 60-80; for Matched Peptides by Fraction JA12: Run2, gel size cut 60-80; for Matched Peptides by Fraction JA01: Run1, gel size cut >200; for Matched Peptides by Fraction JA08: Run2, gel size cut >200; for Matched Peptides by Fraction JA06: Run1, gel size cut 40-60; for Matched Peptides by Fraction JA04: Run1, gel size cut 80-110; for Matched Peptides by Fraction JA03: Run1, gel size cut 110-150; for Matched Peptides by Fraction JA13: Run2, gel size cut 40-60; for Matched Peptides by Fraction JA11: Run2, gel size cut 80-110; for Matched Peptides by Fraction JA10: Run2, gel size cut 110-150; for Matched Peptides by Fraction JA02: Run1, gel size cut 150-200; for Matched Peptides by Fraction JA09: Run2, gel size cut 150-200
Description: Protein cargo isolated from cell lysate with PU-beads or control-beads was subjected to proteomic analysis by nano liquid chromatography coupled to tandem mass spectrometry (nano LC-MS/MS). Initial protein identification was performed using the Mascot search engine, and was further evaluated using Scaffold Proteome Software (Tables 5a-d).
(§1) Lysates prepared as mentioned above were first pre-cleaned by incubation with control beads overnight at 4° C. […] Beads were washed with lysis buffer, proteins eluted by boiling in 2% SDS, separated on a denaturing gel and Coomassie stained according to manufacturer's procedure (Biorad). […] Analyses of the batch purified pools were done using a QSTAR-Elite hybrid quadrupole time-of-flight mass spectrometer (QTof MS) (AB/MDS Sciex), equipped with a nano spray ion source. Peptide mixtures (in 20 μL) are loaded onto a trapping guard column (0.3×5-mm PepMap C18 100 cartridge from LC Packings) using an Eksigent nano MDLC system (Eksigent Technologies, Inc) at a flow rate of 20 μL/min. […] Electrospray ionization (ESI) needle voltage was set at about 1800 V. The mass analyzer is operated in automatic, data-dependent MS/MS acquisition mode, with the threshold set to 10 counts per second of doubly or triply charged precursor ions selected for fragmentation scans. Survey scans of 0.25 sec are recorded from 400 to 1800 amu; up to 3 MS/MS scans are then collected sequentially for the selected precursor ions, recording from 100 to 1800 amu. The collision energy is automatically adjusted in accordance with the m/z value of the precursor ions selected for MS/MS. Selected precursor ions are excluded from repeated selection for 60 sec after the end of the corresponding fragmentation duty cycle. […] One missed tryptic cleavage site was allowed, precursor ion mass tolerance=0.4 Da fragment ion mass tolerance=0.4 Da, protein modifications were allowed for Met-oxide, Cys-acrylamide and N-terminal acetylation. MudPit scoring was typically applied with ‘require bold red’ activated, and using significance threshold score p<0.05. Unique peptide counts (or ‘spectral counts’) and percent sequence coverages for all identified proteins were exported to Scaffold Proteome Software (version 2_06_01, www.proteomesoftware.com) for further bioinformatic analysis (Table 5a). Using output from Mascot, Scaffold validates, organizes, and interprets mass spectrometry data, allowing more easily to manage large amounts of data, to compare samples, and to search for protein modifications.

[2] = test system: Hsp90 complexes in Mia-PaCa-2 cell extract; experiment: Nano-LC-MS/MS of PU-beads pull-downs; format: binding, human; conditions: protein identified in PU-beads pull-down of Mia-Paca 2 extract; QSTAR-Elite QTof MS
Description: as §1

Row | Substance | Number of Assigned Spectra, K562 Prep 1 [1] | Number of Assigned Spectra, K562 Prep 2 [1] | Number of Assigned Spectra, Mia-Paca 2 [2] | MAXIMUM matched peptides [1] | Total fmol [1] [fmol] | also measured
1 | MTOR; FRAP | 43 | 14 | 13 |  |  | 
2 | PI4KA | 15 | 4 | 0 |  |  | 
3 | KIAA1967 | 17 | 23 | 3 |  |  | 
4 | SQSTM1 | 3 | 5 | 1 |  |  | 
5 | CTSZ | 1 | 0 | 0 |  |  | 
6 | HDAC2 | 2 | 3 | 1 |  |  | 
7 | LGALS3 | 0 | 0 | 9 |  |  | 
8 | HDAC1 | 10 | 11 | 1 |  |  | 
9 | ABL1 | 3 | 4 | 0 |  |  | 
10 | HSP90AB1 | 300 | 1208 | 578 |  |  | 
11 | PLK1 | 3 | 0 | 0 |  |  | 
12 | CSNK2B | 1 | 0 | 1 |  |  | 
13 | Growth factor receptor-bound protein 2; Grb2 |  |  |  | 16 | 20.7753 | Matched Peptides by Fraction JA07 [1]: 15; Matched Peptides by Fraction JA14 [1]: 16
14 | Stress-70 protein; GRP75 |  |  |  | 41 | 31.2908 | Matched Peptides by Fraction JA05 [1]: 41; Matched Peptides by Fraction JA12 [1]: 38
15 | Serine/threonine-protein phosphatase 2A catalytic subunit alpha isoform |  |  |  | 20 | 63.3310 | Matched Peptides by Fraction JA07 [1]: 20; Matched Peptides by Fraction JA14 [1]: 16
16 | E3 ubiquitin-protein ligase UBR4 |  |  |  | 128 | 20.1396 | Matched Peptides by Fraction JA01 [1]: 112; Matched Peptides by Fraction JA08 [1]: 128
17 | Endoplasmin; GRP94 |  |  |  | 79 | 127.8154 | Matched Peptides by Fraction JA06 [1]: 14; Matched Peptides by Fraction JA05 [1]: 22; Matched Peptides by Fraction JA04 [1]: 79; Matched Peptides by Fraction JA03 [1]: 21; Matched Peptides by Fraction JA07 [1]: 4; Matched Peptides by Fraction JA13 [1]: 20; Matched Peptides by Fraction JA11 [1]: 71; Matched Peptides by Fraction JA10 [1]: 48; Matched Peptides by Fraction JA14 [1]: 7
18 | Transducin-like enhancer protein 3; TLE3 |  |  |  | 13 | 3.7256 | Matched Peptides by Fraction JA11 [1]: 13
19 | Dedicator of cytokinesis protein 2; DOCK2 |  |  |  | 16 | 4.2624 | Matched Peptides by Fraction JA02 [1]: 5; Matched Peptides by Fraction JA09 [1]: 16
20 | Hsp90 co-chaperone Cdc37 |  |  |  | 17 | 45.9047 | Matched Peptides by Fraction JA06 [1]: 17; Matched Peptides by Fraction JA13 [1]: 16

Row | Substance | Number of Assigned Spectra, K562 Prep 1 [1] | Number of Assigned Spectra, K562 Prep 2 [1] | Number of Assigned Spectra, Mia-Paca 2 [2] | MAXIMUM matched peptides [1] | Total fmol [1] [fmol] | also measured
21 | 182 kDa tankyrase-1-binding protein |  |  |  | 22 | 7.9788 | Matched Peptides by Fraction JA01 [1]: 12; Matched Peptides by Fraction JA08 [1]: 22
22 | Casein kinase II subunit beta |  |  |  | 5 | 9.0324 | Matched Peptides by Fraction JA07 [1]: 3; Matched Peptides by Fraction JA14 [1]: 5
23 | Filamin-A |  |  |  | 46 | 8.4872 | Matched Peptides by Fraction JA01 [1]: 42; Matched Peptides by Fraction JA08 [1]: 46
24 | Serine/threonine-protein kinase mTOR |  |  |  | 48 | 16.4969 | Matched Peptides by Fraction JA02 [1]: 18; Matched Peptides by Fraction JA01 [1]: 22; Matched Peptides by Fraction JA09 [1]: 16; Matched Peptides by Fraction JA08 [1]: 48
25 | Phosphatidylinositol 4-kinase alpha |  |  |  | 18 | 5.5247 | Matched Peptides by Fraction JA02 [1]: 12; Matched Peptides by Fraction JA09 [1]: 18
26 | Mitogen-activated protein kinase 1; MAPK1; ERK-2 |  |  |  | 79 | 79.3199 | Matched Peptides by Fraction JA06 [1]: 79; Matched Peptides by Fraction JA13 [1]: 65
27 | Protein-tyrosine kinase 2-beta; FAK-2 |  |  |  | 4 | 1.3365 | Matched Peptides by Fraction JA03 [1]: 4
28 | Mitogen-activated protein kinase 9; JNK2 |  |  |  | 12 | 3.5130 | Matched Peptides by Fraction JA06 [1]: 12; Matched Peptides by Fraction JA05 [1]: 7
29 | Protein KIAA1967 p30 DBC |  |  |  | 26 | 22.1394 | Matched Peptides by Fraction JA03 [1]: 19; Matched Peptides by Fraction JA10 [1]: 26
30 | Regulator of differentiation 1′ ROD1 |  |  |  | 13 | 0.5622 | Matched Peptides by Fraction JA12 [1]: 13
31 | Serine/threonine-protein kinase ATR |  |  |  | 10 | 1.0124 | Matched Peptides by Fraction JA01 [1]: 10
32 | Phosphoinositide 3-kinase regulatory subunit 4 |  |  |  | 14 | 6.7192 | Matched Peptides by Fraction JA03 [1]: 13; Matched Peptides by Fraction JA10 [1]: 14
33 | E3 ubiquitin-protein ligase CHIP |  |  |  | 14 | 30.9572 | Matched Peptides by Fraction JA07 [1]: 14; Matched Peptides by Fraction JA14 [1]: 12
34 | Vinculin |  |  |  | 46 | 17.7700 | Matched Peptides by Fraction JA03 [1]: 35; Matched Peptides by Fraction JA10 [1]: 46
35 | 14-3-3 protein gamma; YWHAG |  |  |  | 12 | 25.6664 | Matched Peptides by Fraction JA07 [1]: 12; Matched Peptides by Fraction JA14 [1]: 12
36 | Tyrosine-protein phosphatase non-receptor type 23; PTPN23 |  |  |  | 13 | 5.6692 | Matched Peptides by Fraction JA02 [1]: 10; Matched Peptides by Fraction JA09 [1]: 13
37 | Heat shock-related 70 kDa protein 2 |  |  |  | 45 | 7.7656 | Matched Peptides by Fraction JA05 [1]: 37; Matched Peptides by Fraction JA12 [1]: 45
38 | Histone deacetylase 3; HDAC3 |  |  |  | 13 | 9.1175 | Matched Peptides by Fraction JA06 [1]: 9; Matched Peptides by Fraction JA13 [1]: 13
39 | Regulatory-associated protein of mTOR; RAPTOR |  |  |  | 14 | 4.8217 | Matched Peptides by Fraction JA03 [1]: 13; Matched Peptides by Fraction JA10 [1]: 14
40 | Serine/threonine-protein kinase TBK1 |  |  |  | 16 | 5.3258 | Matched Peptides by Fraction JA04 [1]: 9; Matched Peptides by Fraction JA11 [1]: 16
